Measurements reported in patent US20190161525A1 (NATIONAL CHENG KUNG UNIVERSITY, published 2019).
These are yes or no findings as the source states them, for the method shown. Binding can be weak; no strength is given.

Columns and labels:
[1] = biological target: recombinant His-Tau; assay: incubation in PBS, reducing SDS-PAGE and Western blot
[2] = biological target: recombinant His-Tau; assay: incubation in PBS, reducing SDS-PAGE

B1: Zfra1-31 (full-length zinc finger-like protein that regulates apoptosis, synthetic peptide) (peptide)
peptide: MSSRRSSSCKYCEQDFRAHTQKNAATPFLAN
notes: also called Zfra peptide; full-length Zfra
**Q.** Which results are given for B1?
**A.** binding [1]: binds; binding [2]: binds
